Among all 320,000 compounds or so, about 2,100 (0.66%) were called active. Inconclusive means that the source gave no clear call. Such entries were picked first, then a sample of the others. Calls follow the shape of the dose curve; as a rule, active = well fitted inhibition curve with a large enough effect in the signal ratio, with a control signal flat (not every such curve was filed as active); inconclusive = small, poorly fitted or top-dose-only effect, or effect the other way, or a change in a side signal; inactive = flat fitted curve, though single readings scatter; the % refers to the signal ratio. A potency beside an inconclusive call is a rough fit, not a confirmed value.
assay: qHTS Assay for Lipid Storage Modulators in Drosophila S3 Cells; details: BODIPY lipid droplet fluorescence, 18-24 h, cells fed with added oleic acid; lipid storage change, negative = inhibition: at 46.1 µM (top of the series) unless noted
Method in brief: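 Laser-scanning cytometry quantifies lipid droplet accumulation (500–530 nm total intensity; droplet/cell object ratio) in oleic acid-fed (400 uM added) Drosophila S3 cells treated with a concentration series. 20 uM Triacsin C defined 100% inhibition.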
% is scaled to controls: 0 for no effect and ±100 for the full control effect; potency is read from the fitted curve at half-maximal effect.

Compound | lipid storage change, negative = inhibition | Potency
C/C(=N\NC(=O)c1ccc(CSc2nc(C)cc(C)n2)cc1)c1ccco1 | inconclusive: -31.5% [at 0.00295 µM] | –
CCC(C)[C@H](NC(=O)C1CC(=O)N(c2ccc3c(c2)OCCO3)C1)C(=O)NC1CCCC1 (stereo not given in full) | inconclusive: 85.2% | –
COc1cc(OC)cc(-c2nc(=S)n3ccsc3n2)c1 | inconclusive: 9.03% | –
CN(C)c1ccc(C=Nc2ccccc2C(N)=O)cc1 | inconclusive: -23.6% | –
O=C(Nc1ccccc1Cl)c1ccc2c(=O)n3c(nc2c1)CCC3 | inconclusive: -6.67% | –
COc1cc(C(=O)NCCCN2CCCC2=O)cc(Br)c1OCc1ccccc1 | inconclusive: 23.5% | –
COC(=O)C1=C(C(=O)c2ccc(C)cc2)C(c2ccc(O)c(OC)c2)n2nnnc2N1 (stereo not given) | inconclusive: -10.5% | –
CCC(C)c1ccc(NC(=S)Nc2ccc(OC)cc2C)cc1 (stereo not given) | – | inconclusive: 7.31 µM [falling, partial curve]
CCOC(=O)C[n+]1c(C)sc2ccc(OC)cc21 | – | inconclusive: 0.13 µM [rising, full curve, poor fit]
Cc1c(Cc2ccccc2)c(=O)oc2c(C)c(OCc3nn[nH]n3)ccc12 | inconclusive: 1.22% | –
O=c1c2c3c(sc2nc2n1N=C(c1cccs1)CS2)CCCC3 | inconclusive: 29.8% | –
CCOc1ncccc1C(=O)OCC(=O)N(CC(C)C)c1c(N)n(Cc2ccccc2)c(=O)[nH]c1=O | inconclusive | –
O=C(OCc1nc2ccsc2c(=O)[nH]1)c1ccccc1 | inconclusive | –
CC(C)n1nnnc1SCC(=O)N1N=C(c2cccs2)CC1c1cccs1 (stereo not given) | inconclusive: -4.78% | –
CCNC(=O)CC1C(=O)N(c2cccc(C)c2)C(=O)N1CCC(C)C (stereo not given) | inconclusive: 45.2% | –
CCOc1ncccc1C(=O)OCC(=O)NC(=O)c1ccccc1 | inconclusive: -8.57% | –
COCCCN(C(C)=O)c1nc(-c2ccccc2)cs1 | – | inconclusive: 6.51 µM [rising, single point]
COc1ccc(CN2CCNC(=O)C2CC(=O)NCCC2=CCCCC2)c(F)c1 (stereo not given) | inconclusive: -7.66% | –
C/C(=C\c1ccc(N)cc1)c1nc2ccccc2[nH]1 | inconclusive: -24.6% | –
CCOc1ncccc1C(=O)Nc1ccc(S(=O)(=O)Nc2nccs2)cc1 | – | inconclusive: 6.51 µM [activator, partial curve, poor fit]
O=C(NCCc1ccc(Cl)cc1)c1ccc(CNc2c(N3CCOCC3)c(=O)c2=O)cc1 | inconclusive: 30.2% | –
CCCCN(C)S(=O)(=O)c1ccc(C(=O)N(CCN(C)C)c2nc3ccc(C)cc3s2)cc1 | inconclusive: -18.5% | –
Cc1nc2cccc(C(=O)NCc3ccccc3)c2o1 | – | inconclusive: 29.1 µM [activator, single point]
CCOC(=O)C1CCN(c2ccc([N+](=O)[O-])c(C(C)=O)c2)CC1 | inconclusive: -3.08% | –
COc1ccc(NC(=O)C2CCCN2C(=O)NC2CCCCC2)c(OC)c1 (stereo not given) | inconclusive: 17.8% | –

Record cards, from the list above.
COCCCN(C(C)=O)c1nc(-c2ccccc2)cs1 is entered as Potency: inconclusive: 6.51 µM [rising, single point]
O=C(OCc1nc2ccsc2c(=O)[nH]1)c1ccccc1 is entered as lipid storage change, negative = inhibition: inconclusive

The list goes on.

Compound | lipid storage change, negative = inhibition | Potency
O=C(CC1Oc2ccccc2NC1=O)NCCCN1CCCC1=O (stereo not given) | inconclusive: -23.9% | –
O=C(NC1CC1)C1CCN(C2CCN(C(=O)CSc3ccccc3)CC2)CC1 | inconclusive: 31.8% | –
[O-][n+]1onc2c1CCc1c-2nc(-c2ccccc2)n1OCc1ccccc1 | inconclusive: 20.8% | –
CC1Cc2cc(/C(O)=C3/C(=O)C(=O)N(CCN4CCOCC4)C3c3cccc(O)c3)ccc2O1 (stereo not given) | inconclusive: 4.78% | –
O=C1C(=O)N(CCc2c[nH]c3ccccc23)C(c2cccnc2)/C1=C(/O)c1ccccc1 (stereo not given) | inconclusive: 31.8% | –
CC(NC(=O)c1ccco1)C(=O)N1CCCCC1 (stereo not given) | – | inconclusive: 6.51 µM [falling, partial curve, poor fit]
O=C(NCc1ccco1)[C@@H]1CCCN1C(=O)c1cccs1 | – | inconclusive: 29.1 µM [falling, single point]
Cc1cc(C)c(Cc2c(C)nc3c(C(=O)NCc4ccco4)cnn3c2C)c(C)c1 | – | active: 6.51 µM
CC(OC(=O)c1cccs1)C(=O)NCc1cccs1 (stereo not given) | – | inconclusive: 5.17 µM [falling, single point]
COc1ccc(C(=O)N/C(=C\c2cn(C)c3ccccc23)C(=O)N2CCOCC2)cc1OC | – | active: 23.1 µM
CONC(=O)C1CCN(C(=O)OCc2ccccc2)CC1 | inconclusive: 18.4% | –
Cc1csc(SCC(=O)N(C)C2CCS(=O)(=O)C2)n1 (stereo not given) | inconclusive | –
O=C(O)C(CCCCN1C(=O)C2C3C=CC(C3)C2C1=O)N1C(=O)C2C3C=CC(C3)C2C1=O (stereo not given) | inconclusive: -8.8% | –
O=C(CN1CCC(NC(=O)c2ccccc2F)CC1)Nc1ccc2c(c1)OCO2 | inconclusive: -4.03% | –
CC(C)CCNC(=O)C1CCC(CNc2c(N3CCC(C)CC3)c(=O)c2=O)CC1 (stereo not given) | inconclusive: -6.59% | –
S=c1[nH]nc(-c2ccccc2Cl)n1Cc1ccccc1 | inconclusive: 9.97% | –
CCN1CCN(C(=O)CN(C)S(=O)(=O)c2ccc3ccccc3c2)CC1 | inconclusive: -0.364% | –
COc1ccc(S(=O)(=O)N2CCC(C(=O)N[C@@H](C)C(=O)NC3CCCC3)CC2)cc1 | – | inconclusive: 9.2 µM [activator, partial curve]
c1ccc(-n2nnnc2SCc2ccccn2)cc1 | – | inconclusive: 29.1 µM [rising, single point]
Cc1nnc(SCc2cn3ccsc3n2)n(N)c1=O | inconclusive: 15.2% | –
COc1ccccc1C(=O)Nc1ccnn1C1CCN(Cc2ccn[nH]2)CC1 | inconclusive: -24.7% | –
COc1ccc(CCNC(=O)CC(=O)N/N=C/c2ccc(C(=O)O)cc2)cc1OC | – | inconclusive: 0.13 µM [falling, full curve, poor fit]
Cc1cc(-c2cc(-c3ccc(Cl)cc3)on2)nc(NCC2CC2)n1 | inconclusive: 9.58% | –
N#Cc1c(-c2ccc(Br)cc2)nc2n(c1=O)CCCS2 | – | inconclusive: 0.82 µM [rising, full curve]
COc1ccc(Cl)cc1N(C(=O)Nc1cccc(Cl)c1)C1=NCC(C)S1 (stereo not given) | inconclusive: 8.44% | –
